Results taken from the supplement of paper PMC10849652.
The other results are listed elsewhere or left out.

Sequences of proteins named here, by UniProt entry; tags and fusion partners are left off. A change or cut given only in a name is not applied to a line headed by its entry.
UniProt P11908: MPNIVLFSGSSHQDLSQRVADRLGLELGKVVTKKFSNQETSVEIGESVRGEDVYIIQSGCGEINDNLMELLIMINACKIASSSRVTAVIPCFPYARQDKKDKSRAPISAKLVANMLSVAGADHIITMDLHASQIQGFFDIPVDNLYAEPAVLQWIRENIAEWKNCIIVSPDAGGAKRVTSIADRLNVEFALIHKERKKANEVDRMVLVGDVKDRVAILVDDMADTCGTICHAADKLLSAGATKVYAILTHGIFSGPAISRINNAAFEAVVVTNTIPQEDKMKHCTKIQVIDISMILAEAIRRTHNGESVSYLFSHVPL
UniProt Q9Y570: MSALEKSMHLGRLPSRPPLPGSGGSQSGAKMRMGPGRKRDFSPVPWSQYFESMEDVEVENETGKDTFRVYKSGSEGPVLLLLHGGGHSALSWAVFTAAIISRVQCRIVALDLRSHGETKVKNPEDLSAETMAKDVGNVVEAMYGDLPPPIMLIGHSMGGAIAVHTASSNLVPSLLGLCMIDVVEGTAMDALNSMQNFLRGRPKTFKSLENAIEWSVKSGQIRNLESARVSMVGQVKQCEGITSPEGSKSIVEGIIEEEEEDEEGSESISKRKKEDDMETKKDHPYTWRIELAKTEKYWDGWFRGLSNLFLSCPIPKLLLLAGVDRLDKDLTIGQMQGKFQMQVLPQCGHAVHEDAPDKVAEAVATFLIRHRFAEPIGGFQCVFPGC
UniProt P41236: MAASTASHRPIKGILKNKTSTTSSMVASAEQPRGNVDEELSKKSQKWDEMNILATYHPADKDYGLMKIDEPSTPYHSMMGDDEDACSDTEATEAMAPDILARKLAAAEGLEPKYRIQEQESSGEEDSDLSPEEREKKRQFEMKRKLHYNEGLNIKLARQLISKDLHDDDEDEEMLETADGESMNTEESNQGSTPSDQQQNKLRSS
UniProt Q9NY27: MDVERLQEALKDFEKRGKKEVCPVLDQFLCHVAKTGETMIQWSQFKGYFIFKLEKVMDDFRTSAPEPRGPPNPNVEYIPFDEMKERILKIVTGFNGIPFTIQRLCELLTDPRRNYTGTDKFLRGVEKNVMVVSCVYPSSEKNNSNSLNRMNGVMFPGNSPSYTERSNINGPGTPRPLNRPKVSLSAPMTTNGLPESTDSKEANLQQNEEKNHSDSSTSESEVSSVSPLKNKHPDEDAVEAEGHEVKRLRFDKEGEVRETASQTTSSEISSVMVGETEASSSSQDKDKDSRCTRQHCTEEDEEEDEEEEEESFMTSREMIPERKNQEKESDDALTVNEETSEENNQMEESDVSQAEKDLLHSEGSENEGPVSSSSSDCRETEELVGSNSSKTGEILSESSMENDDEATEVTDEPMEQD
UniProt Q9HCU5: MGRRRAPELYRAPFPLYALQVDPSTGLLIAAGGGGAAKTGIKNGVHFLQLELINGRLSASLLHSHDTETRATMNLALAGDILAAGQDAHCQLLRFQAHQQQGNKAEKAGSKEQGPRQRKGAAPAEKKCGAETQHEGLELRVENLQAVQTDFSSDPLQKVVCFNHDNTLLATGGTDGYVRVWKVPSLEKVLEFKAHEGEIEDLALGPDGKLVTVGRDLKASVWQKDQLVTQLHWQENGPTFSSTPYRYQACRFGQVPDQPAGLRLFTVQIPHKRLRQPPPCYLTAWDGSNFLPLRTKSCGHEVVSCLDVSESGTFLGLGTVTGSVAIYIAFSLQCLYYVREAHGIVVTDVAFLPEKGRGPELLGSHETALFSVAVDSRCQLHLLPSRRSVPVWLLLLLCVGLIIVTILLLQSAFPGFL
UniProt P30048: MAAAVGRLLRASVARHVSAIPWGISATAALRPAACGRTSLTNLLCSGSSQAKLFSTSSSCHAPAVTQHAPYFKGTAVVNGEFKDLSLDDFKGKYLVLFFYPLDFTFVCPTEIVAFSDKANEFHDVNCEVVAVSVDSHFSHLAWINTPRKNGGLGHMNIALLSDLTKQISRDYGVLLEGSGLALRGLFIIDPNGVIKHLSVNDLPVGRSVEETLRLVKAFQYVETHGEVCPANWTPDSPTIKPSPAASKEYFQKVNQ
UniProt Q96QC0: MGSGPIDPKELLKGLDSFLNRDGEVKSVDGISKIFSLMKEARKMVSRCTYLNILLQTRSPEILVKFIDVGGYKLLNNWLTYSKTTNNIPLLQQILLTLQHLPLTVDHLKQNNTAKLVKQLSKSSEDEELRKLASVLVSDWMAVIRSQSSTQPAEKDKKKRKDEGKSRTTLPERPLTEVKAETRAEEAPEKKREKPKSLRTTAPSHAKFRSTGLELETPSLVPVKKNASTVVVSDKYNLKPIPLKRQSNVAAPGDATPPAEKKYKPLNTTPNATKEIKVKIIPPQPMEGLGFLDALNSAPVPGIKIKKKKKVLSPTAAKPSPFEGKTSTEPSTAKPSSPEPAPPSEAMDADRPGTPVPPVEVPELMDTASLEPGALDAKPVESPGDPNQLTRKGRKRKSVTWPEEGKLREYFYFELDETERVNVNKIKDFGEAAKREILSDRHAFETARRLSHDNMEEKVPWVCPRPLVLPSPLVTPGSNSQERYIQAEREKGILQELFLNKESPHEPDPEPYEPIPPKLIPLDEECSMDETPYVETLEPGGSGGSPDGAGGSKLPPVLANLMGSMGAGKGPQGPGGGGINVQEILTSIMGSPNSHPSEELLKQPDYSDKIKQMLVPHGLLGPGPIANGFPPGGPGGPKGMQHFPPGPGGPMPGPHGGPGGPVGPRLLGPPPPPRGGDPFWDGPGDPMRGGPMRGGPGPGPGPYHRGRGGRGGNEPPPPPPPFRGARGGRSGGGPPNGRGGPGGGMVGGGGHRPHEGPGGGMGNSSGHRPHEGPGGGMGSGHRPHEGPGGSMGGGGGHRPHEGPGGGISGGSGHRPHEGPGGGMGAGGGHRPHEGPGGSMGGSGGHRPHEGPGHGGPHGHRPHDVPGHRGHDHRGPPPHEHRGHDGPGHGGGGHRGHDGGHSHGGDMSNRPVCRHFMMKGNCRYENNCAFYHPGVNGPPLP
UniProt Q8TF05: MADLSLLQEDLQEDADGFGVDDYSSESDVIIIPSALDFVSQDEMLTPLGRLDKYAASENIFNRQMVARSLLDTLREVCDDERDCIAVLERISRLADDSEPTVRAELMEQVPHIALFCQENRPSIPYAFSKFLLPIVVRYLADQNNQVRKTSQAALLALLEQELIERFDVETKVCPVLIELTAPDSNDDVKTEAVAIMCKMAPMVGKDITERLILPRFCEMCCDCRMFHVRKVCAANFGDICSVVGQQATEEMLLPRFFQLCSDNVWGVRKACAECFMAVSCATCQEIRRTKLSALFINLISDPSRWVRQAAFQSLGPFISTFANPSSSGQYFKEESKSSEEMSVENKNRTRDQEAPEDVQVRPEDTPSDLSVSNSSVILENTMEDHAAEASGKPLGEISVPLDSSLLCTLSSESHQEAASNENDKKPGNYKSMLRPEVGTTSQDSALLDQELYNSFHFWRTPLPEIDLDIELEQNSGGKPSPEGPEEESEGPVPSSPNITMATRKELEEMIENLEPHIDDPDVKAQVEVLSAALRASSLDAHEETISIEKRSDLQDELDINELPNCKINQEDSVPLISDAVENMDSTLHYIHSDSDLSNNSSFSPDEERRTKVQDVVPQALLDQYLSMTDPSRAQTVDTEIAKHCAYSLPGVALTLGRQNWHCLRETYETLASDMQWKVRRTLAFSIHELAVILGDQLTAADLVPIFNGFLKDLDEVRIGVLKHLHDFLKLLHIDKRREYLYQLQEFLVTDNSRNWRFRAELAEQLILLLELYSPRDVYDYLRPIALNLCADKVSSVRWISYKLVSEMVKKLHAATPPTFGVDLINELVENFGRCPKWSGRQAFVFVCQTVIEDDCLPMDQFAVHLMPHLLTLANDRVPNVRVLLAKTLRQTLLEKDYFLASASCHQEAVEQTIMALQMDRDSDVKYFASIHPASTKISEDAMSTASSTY
UniProt P48454, whole entry, looked up: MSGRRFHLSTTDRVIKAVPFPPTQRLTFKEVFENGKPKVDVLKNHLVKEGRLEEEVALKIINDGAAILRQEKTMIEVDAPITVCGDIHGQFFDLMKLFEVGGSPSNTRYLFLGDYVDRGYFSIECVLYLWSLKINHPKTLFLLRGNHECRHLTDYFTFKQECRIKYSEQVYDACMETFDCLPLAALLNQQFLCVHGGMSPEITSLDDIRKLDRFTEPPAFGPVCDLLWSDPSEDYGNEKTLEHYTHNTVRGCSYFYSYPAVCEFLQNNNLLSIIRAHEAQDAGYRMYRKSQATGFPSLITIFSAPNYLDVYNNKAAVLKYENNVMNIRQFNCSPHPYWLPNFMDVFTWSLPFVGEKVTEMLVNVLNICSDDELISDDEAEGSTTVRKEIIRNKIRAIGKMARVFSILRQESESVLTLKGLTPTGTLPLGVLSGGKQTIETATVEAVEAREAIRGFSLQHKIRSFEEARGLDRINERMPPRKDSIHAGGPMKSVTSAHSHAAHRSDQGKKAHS
UniProt Q96SB3: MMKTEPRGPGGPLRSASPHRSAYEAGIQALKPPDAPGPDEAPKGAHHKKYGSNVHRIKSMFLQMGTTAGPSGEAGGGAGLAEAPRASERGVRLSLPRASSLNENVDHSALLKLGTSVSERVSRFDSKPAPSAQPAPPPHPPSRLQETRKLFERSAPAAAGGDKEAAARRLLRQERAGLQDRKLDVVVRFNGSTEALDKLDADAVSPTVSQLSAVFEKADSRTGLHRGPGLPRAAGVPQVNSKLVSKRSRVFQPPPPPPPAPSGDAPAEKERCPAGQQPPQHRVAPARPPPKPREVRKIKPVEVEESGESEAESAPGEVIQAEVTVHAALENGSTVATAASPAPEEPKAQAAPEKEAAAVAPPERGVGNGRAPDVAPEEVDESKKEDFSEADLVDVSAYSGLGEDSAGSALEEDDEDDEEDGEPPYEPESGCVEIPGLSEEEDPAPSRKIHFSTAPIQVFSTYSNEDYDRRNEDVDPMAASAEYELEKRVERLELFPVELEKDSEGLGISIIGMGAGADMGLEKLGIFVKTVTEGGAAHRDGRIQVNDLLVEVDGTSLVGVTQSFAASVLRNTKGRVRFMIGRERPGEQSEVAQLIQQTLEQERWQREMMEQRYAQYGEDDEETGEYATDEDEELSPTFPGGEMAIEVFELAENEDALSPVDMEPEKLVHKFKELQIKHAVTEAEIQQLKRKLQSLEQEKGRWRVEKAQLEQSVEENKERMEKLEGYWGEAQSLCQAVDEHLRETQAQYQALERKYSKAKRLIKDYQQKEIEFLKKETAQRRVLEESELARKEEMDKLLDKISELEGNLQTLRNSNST
UniProt P55345: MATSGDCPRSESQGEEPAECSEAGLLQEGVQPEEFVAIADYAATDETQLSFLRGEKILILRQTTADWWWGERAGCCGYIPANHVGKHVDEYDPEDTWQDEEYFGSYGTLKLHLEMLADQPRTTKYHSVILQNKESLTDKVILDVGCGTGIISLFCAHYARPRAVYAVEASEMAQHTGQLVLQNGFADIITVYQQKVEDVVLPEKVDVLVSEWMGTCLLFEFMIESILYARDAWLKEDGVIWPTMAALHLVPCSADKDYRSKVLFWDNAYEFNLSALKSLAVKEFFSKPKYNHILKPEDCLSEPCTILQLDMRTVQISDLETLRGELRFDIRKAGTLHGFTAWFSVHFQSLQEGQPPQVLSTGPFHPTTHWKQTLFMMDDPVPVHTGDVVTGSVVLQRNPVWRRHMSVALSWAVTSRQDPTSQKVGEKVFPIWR
UniProt P62714, whole entry, looked up: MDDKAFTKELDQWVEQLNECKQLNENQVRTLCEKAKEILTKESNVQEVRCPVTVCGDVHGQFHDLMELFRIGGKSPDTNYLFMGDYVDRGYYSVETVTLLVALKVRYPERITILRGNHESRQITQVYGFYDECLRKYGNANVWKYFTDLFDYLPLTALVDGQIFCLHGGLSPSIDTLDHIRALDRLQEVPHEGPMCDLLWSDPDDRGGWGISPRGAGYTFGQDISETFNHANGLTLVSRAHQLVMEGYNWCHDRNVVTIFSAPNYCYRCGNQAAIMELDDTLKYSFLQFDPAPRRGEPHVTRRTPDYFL
UniProt P30153, whole entry, looked up: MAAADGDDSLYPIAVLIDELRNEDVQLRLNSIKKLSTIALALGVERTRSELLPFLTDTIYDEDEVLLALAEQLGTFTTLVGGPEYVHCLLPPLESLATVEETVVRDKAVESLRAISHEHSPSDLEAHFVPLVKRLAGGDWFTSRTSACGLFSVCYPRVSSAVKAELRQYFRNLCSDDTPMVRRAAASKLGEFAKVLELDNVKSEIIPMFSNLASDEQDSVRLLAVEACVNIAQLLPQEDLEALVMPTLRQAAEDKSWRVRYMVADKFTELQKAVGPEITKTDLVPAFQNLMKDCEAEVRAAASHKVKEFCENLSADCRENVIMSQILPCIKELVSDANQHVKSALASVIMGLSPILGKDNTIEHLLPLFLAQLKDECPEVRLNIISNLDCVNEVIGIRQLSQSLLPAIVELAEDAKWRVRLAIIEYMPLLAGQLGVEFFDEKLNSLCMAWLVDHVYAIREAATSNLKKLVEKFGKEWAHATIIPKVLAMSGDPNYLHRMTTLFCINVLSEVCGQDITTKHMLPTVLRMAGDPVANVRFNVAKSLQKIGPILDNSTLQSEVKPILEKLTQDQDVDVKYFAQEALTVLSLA

What was measured:
Assay in all cases: log2 fold change, soluble protein after heating vs DMSO (PISA); higher = thermal stabilisation; K562 cells, 10 uM, 30 min; active = over 0.2 and 3.5 SD of the protein, either way, in both replicates (recomputed)
[1] = compound: CS(=O)(=O)c1ccc(-c2cnc(N)c(C(=O)Nc3ccccc3)n2)cc1
Outline: (§1)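 Thermal stability values are relative to control samples and come from duplicates. They are expressed as log2 fold changes. For measurement, K562 cells (2×10^6 cells/mL) received 10 μM compound for 30 min, and aliquots were heated for 3 min over 48°C-58°C, pooled, and extracted at 4°C in PBS with 0.5% NP-40. Soluble protein, the supernatant after 21,000xg for 90 min, was quantified by TMTpro 16plex LC-MS/MS with equalised channel sums.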

[2] = compound: C[C@@H](Oc1cc(-c2cnn(C3CCNCC3)c2)cnc1N)c1c(Cl)ccc(F)c1Cl [crizotinib]
Outline: as §1

[3] = compound: C[C@@H]1COCCN1C2=NC(=NC(=C2)C3(CC3)S(=O)(=O)C)C4=C5C=CNC5=CC=C4
Outline: as §1

[4] = compound: C[C@H](C1=CC=C(C=C1)C(=O)NC2=C3C=CNC3=NC=C2)N
Outline: as §1

[5] = compound: C[C@H](Nc1ncnc2nc[nH]c12)c1cc2cccc(Cl)c2c(=O)n1-c1ccccc1 [duvelisib]
Outline: as §1

[6] = compound: Cc1cc(Nc2cc(CN3CCOCC3)c3nc(C)c(Cc4ccc(Cl)cc4F)n3n2)n[nH]1 [gandotinib]
Outline: as §1

[7] = compound: Cc1cc(Nc2cc(N3CCN(C)CC3)nc(Sc3ccc(NC(=O)C4CC4)cc3)n2)n[nH]1 [tozasertib]
Outline: as §1

[8] = compound: Cc1cc(SCc2sc(-c3ccc(C(F)(F)F)cc3)nc2C)ccc1OCC(=O)O
Outline: as §1

[9] = compound: Cc1ccc(-n2nc(C(C)(C)C)cc2NC(=O)Nc2ccc(OCCN3CCOCC3)c3ccccc23)cc1 [doramapimod]
Outline: as §1

[10] = compound: Cc1ccc(C(=O)N(CCCN)[C@@H](c2nc3cc(Cl)ccc3c(=O)n2Cc2ccccc2)C(C)C)cc1 [ispinesib]
Outline: as §1

[11] = compound: Cc1ccc(NC(=O)c2ccc(CN3CC[C@H](N(C)C)C3)c(C(F)(F)F)c2)cc1Nc1nccc(-c2cncnc2)n1 [bafetinib]
Outline: as §1

[12] = compound: Cc1cccc(CC(=O)N2CCc3c2ccc(-c2cn(C)c4ncnc(N)c24)c3F)n1
Outline: as §1

[13] = compound: Cc1cn(-c2cc(NC(=O)c3ccc(C)c(Nc4nccc(-c5cccnc5)n4)c3)cc(C(F)(F)F)c2)cn1 [nilotinib]
Outline: as §1

[14] = compound: Cc1nc(Nc2n[nH]c3c2CN(C(=O)N[C@H](CN(C)C)c2ccccc2)C3(C)C)c2sccc2n1
Outline: as §1

[15] = compound: Cc1nc(Nc2ncc(C(=O)Nc3c(C)cccc3Cl)s2)cc(N2CCN(CCO)CC2)n1 [dasatinib]
Outline: as §1

[16] = compound: Cc1ncc(-c2ccnc(Nc3ccc(S(C)(=O)=O)cc3)n2)n1C(C)C
Outline: as §1

[17] = compound: Cn1cc(-c2ccc3c(c2)CCN3C(=O)Cc2cccc(C(F)(F)F)c2)c2c(N)ncnc21
Outline: as §1

[18] = compound: Cn1cc(-c2ccc3nnc(C(F)(F)c4ccc5ncccc5c4)n3n2)cn1
Outline: as §1

[19] = compound: Cn1cncc1[C@@](N)(c1ccc(Cl)cc1)c1ccc2c(c1)c(-c1cccc(Cl)c1)cc(=O)n2C [tipifarnib]
Outline: as §1

[20] = compound: FC(F)(F)c1ccc(/C=C/c2nc(COc3ccc(CCCCn4ccnn4)cc3)co2)cc1 [mubritinib]
Outline: as §1

Measured: log2 fold change

PPP2R5D (UniProt Q14738)
inactive: [1] 0 | [2] 0.042 | [3] 0.086 | [4] -0.035 | [5] 0.015 | [6] 0.011 | [7] 0.121 | [8] 0.088 | [9] -0.033 | [10] 0.064 | [11] 0.013 | [12] 0.052 | [13] -0.056 | [14] -0.005 | [15] -0.08 | [16] 0.089 | [17] -0.045 | [18] 0.025 | [19] -0.066 | [20] -0.02

PRPS2 isoform 2 (UniProt P11908)
inactive: [1] -0.004 | [2] 0.014 | [3] 0.036 | [4] 0.016 | [5] 0.01 | [6] -0.002 | [7] -0.016 | [8] 0.016 | [9] 0 | [10] 0.027 | [11] 0.023 | [12] 0.017 | [13] -0.01 | [14] 0.052 | [15] 0 | [16] 0.021 | [17] -0.032 | [18] 0.017 | [19] -0.008 | [20] 0.022

PPME1 (UniProt Q9Y570)
inactive: [1] 0.046 | [2] 0.022 | [3] 0.026 | [4] -0.017 | [5] 0.037 | [6] 0 | [7] 0.018 | [8] 0.019 | [9] -0.015 | [10] 0.102 | [11] -0.023 | [12] -0.007 | [13] -0.001 | [14] 0.007 | [15] -0.017 | [16] -0.008 | [17] 0.028 | [18] 0.025 | [19] -0.031 | [20] 0.031

PPP1R2 (UniProt P41236)
inactive: [1] 0.031 | [2] 0.02 | [3] -0.061 | [4] -0.042 | [5] 0.041 | [6] -0.004 | [7] -0.04 | [8] -0.075 | [9] -0.006 | [10] -0.026 | [11] -0.049 | [12] -0.034 | [13] 0.03 | [14] 0.014 | [15] 0.034 | [16] 0.006 | [17] -0.003 | [18] 0.036 | [19] 0.007 | [20] 0.024

PPP4R2 (UniProt Q9NY27)
inactive: [1] -0.015 | [2] 0.064 | [3] 0 | [4] -0.099 | [5] -0.041 | [6] 0.001 | [7] -0.02 | [8] -0.076 | [9] -0.061 | [10] 0.039 | [11] -0.029 | [12] 0.023 | [13] 0.007 | [14] -0.018 | [15] 0.007 | [16] -0.022 | [17] -0.008 | [18] 0.011 | [19] 0.049 | [20] 0.053

Reprinted at random: two entries already listed.
PRPS2 isoform 2 (UniProt P11908)
inactive: [1] -0.004 | [2] 0.014 | [3] 0.036 | [4] 0.016 | [5] 0.01 | [6] -0.002 | [7] -0.016 | [8] 0.016 | [9] 0 | [10] 0.027 | [11] 0.023 | [12] 0.017 | [13] -0.01 | [14] 0.052 | [15] 0 | [16] 0.021 | [17] -0.032 | [18] 0.017 | [19] -0.008 | [20] 0.022

PPP2R5D (UniProt Q14738)
inactive: [1] 0 | [2] 0.042 | [3] 0.086 | [4] -0.035 | [5] 0.015 | [6] 0.011 | [7] 0.121 | [8] 0.088 | [9] -0.033 | [10] 0.064 | [11] 0.013 | [12] 0.052 | [13] -0.056 | [14] -0.005 | [15] -0.08 | [16] 0.089 | [17] -0.045 | [18] 0.025 | [19] -0.066 | [20] -0.02

Next records.

PREB (UniProt Q9HCU5)
inactive: [1] 0.04 | [2] 0.034 | [3] 0.017 | [4] -0.003 | [5] 0.06 | [6] 0.006 | [7] -0.055 | [8] -0.016 | [9] 0.002 | [10] 0.057 | [11] -0.033 | [12] -0.034 | [13] -0.028 | [14] 0.031 | [15] -0.002 | [16] 0.112 | [17] 0.015 | [18] -0.018 | [19] 0.035 | [20] 0.025

PRDX3 (UniProt P30048)
inactive: [1] 0.031 | [2] 0.025 | [3] -0.006 | [4] -0.203 | [5] -0.02 | [6] 0.032 | [7] 0 | [8] -0.035 | [9] -0.009 | [10] 0.059 | [11] -0.046 | [12] -0.024 | [13] 0.046 | [14] 0.013 | [15] 0.07 | [16] -0.017 | [17] -0.064 | [18] 0.001 | [19] 0.031 | [20] 0.04

PPP1R10 (UniProt Q96QC0)
inactive: [1] -0.112 | [2] -0.083 | [3] -0.199 | [4] 0.266 | [5] -0.063 | [6] 0.182 | [7] -0.091 | [8] -0.018 | [9] 0.186 | [10] -0.061 | [11] 0.13 | [12] -0.036 | [13] 0.001 | [14] 0.163 | [15] 0.119 | [16] 0.119 | [17] -0.119 | [18] -0.116 | [19] 0.123 | [20] -0.077

PPP4R1 (UniProt Q8TF05)
inactive: [1] 0.033 | [2] -0.025 | [3] 0.085 | [4] -0.03 | [5] 0.028 | [6] -0.123 | [7] 0.012 | [8] 0.053 | [9] -0.018 | [10] 0.001 | [11] -0.016 | [12] 0.06 | [13] -0.067 | [14] 0.006 | [15] -0.052 | [16] -0.001 | [17] 0.02 | [18] -0.014 | [19] -0.066 | [20] 0.051

PPP3CC isoform 3 (UniProt P48454)
inactive: [1] 0.054 | [2] -0.076 | [3] 0.106 | [4] -0.039 | [5] 0.025 | [6] 0.075 | [7] 0.035 | [8] 0.024 | [9] 0.017 | [10] -0.05 | [11] -0.059 | [12] 0.012 | [13] -0.073 | [14] 0.036 | [15] -0.021 | [16] -0.007 | [17] 0.023 | [18] -0.016 | [19] -0.062 | [20] 0.052

PPP1R9B (UniProt Q96SB3)
inactive: [1] 0.015 | [2] 0.037 | [3] -0.222 | [4] 0.12 | [5] -0.088 | [6] 0.046 | [7] 0.067 | [8] -0.18 | [9] 0.025 | [10] -0.04 | [11] 0.124 | [12] -0.099 | [13] -0.195 | [14] 0.05 | [15] 0.228 | [16] 0.001 | [17] -0.306 | [18] -0.148 | [19] -0.006 | [20] -0.045

PRKAG2 (UniProt Q9UGJ0)
inactive: [1] 0.016 | [2] -0.188 | [3] 0.054 | [4] -0.051 | [5] 0.065 | [6] -0.171 | [7] -0.006 | [8] 0.017 | [9] -0.014 | [10] -0.023 | [11] -0.079 | [12] 0.05 | [13] -0.08 | [14] -0.196 | [15] -0.022 | [16] -0.013 | [17] 0.055 | [18] 0.02 | [19] 0.04 | [20] -0.05

PRMT2 (UniProt P55345)
inactive: [1] -0.051

PPP2CB (UniProt P62714)
inactive: [1] -0.013 | [2] 0.046 | [3] -0.007 | [4] -0.046 | [5] 0.039 | [6] -0.007 | [7] -0.027 | [8] -0.05 | [9] -0.019 | [10] 0.019 | [11] -0.045 | [12] -0.013 | [13] 0.025 | [14] -0.021 | [15] 0.022 | [16] 0.01 | [17] 0.021 | [18] 0.024 | [19] 0.053 | [20] 0.056

PRKCI (UniProt P41743)
inactive: [1] 0.093 | [2] -0.057 | [3] -0.032 | [4] -0.02 | [5] 0.088 | [6] 0.014 | [7] 0.054 | [8] 0.1 | [9] -0.021 | [10] -0.028 | [11] -0.031 | [12] 0.045 | [13] 0.009 | [14] -0.107 | [15] -0.051 | [16] -0.002 | [17] -0.056 | [18] 0.013 | [19] -0.001 | [20] 0.064

PPP2R1A (UniProt P30153)
inactive: [1] 0.024 | [2] 0.022 | [3] 0.067 | [4] -0.026 | [5] 0.031 | [6] -0.016 | [7] 0.011 | [8] 0.024 | [9] -0.016 | [10] 0.067 | [11] -0.029 | [12] 0.01 | [13] -0.006 | [14] -0.01 | [15] -0.018 | [16] -0.004 | [17] 0.057 | [18] -0.007 | [19] -0.001 | [20] 0.043
